# Results as given in PubChem BioAssay AID1347422 (Sanford-Burnham Center for Chemical Genomics, 2020).
# Amino acid sequences for entries named in this document (tags omitted). A change or cut given only in a name is not applied to a line headed by its entry.
# UniProt O00391: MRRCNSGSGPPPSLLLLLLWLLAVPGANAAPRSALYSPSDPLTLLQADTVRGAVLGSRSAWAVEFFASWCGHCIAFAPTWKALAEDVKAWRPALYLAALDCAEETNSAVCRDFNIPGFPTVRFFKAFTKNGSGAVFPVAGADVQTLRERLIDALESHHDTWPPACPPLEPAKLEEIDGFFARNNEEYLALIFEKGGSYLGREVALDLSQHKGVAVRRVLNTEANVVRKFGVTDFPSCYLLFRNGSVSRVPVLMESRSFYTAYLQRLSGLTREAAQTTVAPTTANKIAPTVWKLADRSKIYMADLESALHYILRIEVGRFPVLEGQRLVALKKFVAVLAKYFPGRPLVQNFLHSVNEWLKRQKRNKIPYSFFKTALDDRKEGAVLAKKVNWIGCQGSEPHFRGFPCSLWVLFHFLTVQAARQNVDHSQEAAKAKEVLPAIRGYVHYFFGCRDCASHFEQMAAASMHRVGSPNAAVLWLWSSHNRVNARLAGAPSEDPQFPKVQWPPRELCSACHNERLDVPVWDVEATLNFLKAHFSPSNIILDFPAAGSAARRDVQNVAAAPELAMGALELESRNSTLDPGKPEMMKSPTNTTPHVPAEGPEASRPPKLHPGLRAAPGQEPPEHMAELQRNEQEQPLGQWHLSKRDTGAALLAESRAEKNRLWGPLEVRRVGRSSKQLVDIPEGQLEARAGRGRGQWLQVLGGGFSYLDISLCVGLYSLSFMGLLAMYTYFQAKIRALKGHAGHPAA
# The full ranking holds about 1,000 compounds; the median of “thermal shift dTm” is about 0.19, and the highest 2% start at about 1.7. The list shows a part of the results. Calls of active or inactive are those of the source.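 Rule for the calls: active = mean rise in melting temperature of at least 1 degC over same-plate control wells; inactive = below that, where a call was filed.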
# Molecular target: Sulfhydryl oxidase 1 (Homo sapiens) (UniProt O00391)
# Test: QSOX1 binders by thermal stabilization, confirmation, QSOX1 inhibitor project, biophysical, protein thermal shift, single concentration (AID 1347422);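 note: dTm is compound Tm minus mean Tm of DMSO-only wells on that plate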
# Conditions: recombinant hQSOX1 thermal shift, Sypro Orange, at 25 µM, stronger effect = higher value
row,SMILES,thermal shift dTm
1,CCc1ccc2c(c1)C(OC(C)=O)C(C)(C)C(c1cccc(Br)c1)N2 (configuration not stated),0.44 °C
2,COc1ccc(CCNC(=O)Nc2ccccc2)cc1,0.85 °C
3,Cc1cc(C(=O)Nc2ccc(S(=O)(=O)N3CCCC3)cc2)c(C)o1,inactive: 0 °C
4,O=c1nc2n(c3cc(Cl)ccc13)CC(O)=C2c1ccccc1,active: 1.08 °C
5,Cc1ccc(-c2nc(NC(=O)c3ccoc3C)sc2C)c(C)c1,0.19 °C
6,COc1ccc(CNS(=O)(=O)c2ccc(Cl)c(OC)c2)cc1,0.34 °C
7,CN(C(=O)Nc1ccc(F)cc1)c1ccccc1,inactive: -1.43 °C
8,CC(=O)C1=C(C)NC(SCC=C(C)C)=C(C#N)C1c1cccs1 (configuration not stated),0.2 °C
9,COc1ccc(-c2cc3ccc(OCc4ccccc4Br)cc3oc2=O)cc1OC,0.67 °C
10,CCSC1=N/C(=C\c2ccc(-c3cccc(Cl)c3)o2)C(=O)S1,0.25 °C
11,Fc1ccc(-c2nc(-c3cccs3)c(-c3cccs3)[nH]2)cc1,active: 3.34 °C
12,CC(C)c1ccc(/C=C/C(=O)Nc2ccc(C(N)=O)cc2)cc1,0.01 °C
13,O=C(Nc1cccc(NC(=O)c2ccco2)c1)c1cccc(F)c1,active: 1.39 °C
14,CC(C)N(Cc1nc(-c2ccc(Cl)cc2)no1)S(=O)(=O)c1ccc(F)cc1,0.02 °C
15,Oc1cccc(Nc2nc(-c3ccc(Cl)cc3)cs2)c1,0.01 °C
16,COc1ccc2[nH]cc(CCNC(=O)c3cccc(Cl)c3)c2c1,active: 1.74 °C
17,CC1CCN(c2cc(N)c(Cl)cc2[N+](=O)[O-])CC1,0.62 °C
18,CCN(CC)c1ccc2cc(-c3nc4ccccc4o3)c(=O)oc2c1,0.15 °C
19,Cc1occc1C(=O)Nc1ccc(-c2nc3ccccc3c(=O)o2)cc1,active: 1.3 °C
20,COc1ccccc1NC1=NC(c2ccc(F)cc2F)=[C+]S1,0.1 °C
21,COc1ccccc1C(=O)NCCc1c[nH]c2ccc(F)cc12,inactive: -10.7 °C
22,O=C(Nc1ccc(O)cc1)c1ccc(NC(=O)C2CCCO2)cc1 (configuration not stated),0.65 °C

# Part of the list above, as tab-separated lines:
row	SMILES	thermal shift dTm
15	Oc1cccc(Nc2nc(-c3ccc(Cl)cc3)cs2)c1	0.01 °C
16	COc1ccc2[nH]cc(CCNC(=O)c3cccc(Cl)c3)c2c1	active: 1.74 °C
17	CC1CCN(c2cc(N)c(Cl)cc2[N+](=O)[O-])CC1	0.62 °C
18	CCN(CC)c1ccc2cc(-c3nc4ccccc4o3)c(=O)oc2c1	0.15 °C
19	Cc1occc1C(=O)Nc1ccc(-c2nc3ccccc3c(=O)o2)cc1	active: 1.3 °C

# (cont.)

row,SMILES,thermal shift dTm
1,O=C(Nc1n[nH]c(-c2ccccc2)n1)N1CCC2(C=Cc3ccccc32)CC1,0.09 °C
2,CCCC(=O)NC(c1ccc(Cl)cc1)c1c(O)ccc2ccccc12 (configuration not stated),0.01 °C
3,Cc1ccc(NC(=O)Nc2ccc(C)c(F)c2)c(C)c1,0.56 °C
4,COc1ccc(-c2cc3ccc(OC(C)=O)cc3oc2=O)cc1,0.21 °C
5,O=C(Nc1ccc(C(=O)N2CCCCC2)cc1)Nc1ccc2c(c1)OCO2,0.32 °C
6,CCCNS(=O)(=O)c1cc(C(=O)Nc2cccc(C)c2)ccc1N1CCCC1,inactive: -5.56 °C
7,Cc1ccc(-c2noc(CNC(=O)C34CC5CC(CC(C5)C3)C4)n2)cc1,0.16 °C
8,CC(=O)Nc1cccc(NC(=O)COc2ccc(F)cc2Cl)c1,inactive: 0 °C
9,O=C(Nc1cccc(Cl)c1)N1CCC(C(O)(c2ccccc2)c2ccccc2)CC1,0.21 °C
10,Cc1ccc2cccc(OCCCCOc3ccccc3I)c2n1,0.77 °C
11,COCCNC(=O)/C(=C/c1ccc(-c2cc(Cl)ccc2Cl)o1)NC(=O)c1ccc(C)cc1,inactive: -0.09 °C
12,c1cc(NCc2ccc3c(c2)OCO3)cc(-c2nc3ccccc3[nH]2)c1,active: 2.39 °C
13,CCOc1ccc(C(=O)Nc2cccc(OCC)c2)cc1,inactive: -0.1 °C
14,FC(F)(F)c1ccc(Cl)c(Nc2nnc(-c3ccncc3)s2)c1,0.77 °C
15,CCOc1ccccc1NC(=O)/C=C/c1cccc(Cl)c1,0.4 °C
16,S=C(c1ccc(OCc2ccc(Cl)c(Cl)c2)cc1)N1CCOCC1,0.16 °C
17,Cc1ccc(-c2nnc(-c3ccc(N)cc3)o2)cc1,0.25 °C
18,Nc1cc(C(O)c2ccccc2)ccc1N1CCCCC1 (configuration not stated),0.13 °C
19,COc1ccc(NC(=S)Nc2ccc3nccnc3c2)cc1,active: 1.58 °C
20,COc1ccc(Nc2nnc(-c3ccccc3)c3ccccc23)cc1,0.01 °C
21,O=C(Nc1cccc(Cl)c1)N1CCN(c2ccccc2F)CC1,0.98 °C
22,CC(C)N(Cc1nc(-c2ccccc2)no1)S(=O)(=O)c1ccc(Br)cc1,0.07 °C

row,SMILES,thermal shift dTm
1,CCN(C(=O)Nc1ccc(OC)cc1)c1nnc(-c2ccc(Cl)cc2)s1,0.16 °C
2,COc1ccc(C2=N[N+](c3nc(-c4ccc(S(=O)(=O)N5CCCC5)cc4)cs3)=C(c3ccc(OC)cc3)C2)cc1,inactive: -0.18 °C
3,O=C(Nc1cccc(-c2nc3ccccc3[nH]2)c1)C1CCCO1 (configuration not stated),0.02 °C
4,Cc1ccc2ccc(C(Nc3ccccn3)c3ccc(Cl)cc3)c(O)c2n1 (configuration not stated),0.57 °C
5,COc1ccc(OC)c(-c2nc(NC(=O)c3ccccc3OC)sc2C)c1,inactive: -7.06 °C
6,COc1ccc(-c2cc3ccc(OCc4ccccc4F)cc3oc2=O)cc1OC,0.11 °C
7,O=C(NCCSc1ccc(Cl)cc1)Nc1ccccc1,0.61 °C
8,COc1ccc(-c2cc(C(F)(F)F)nc(NCc3cccs3)n2)cc1OC,0.11 °C
9,O=C(/C=C/c1ccc(F)cc1)Nc1ccncc1,0.57 °C
10,COc1ccc(Cl)cc1NC(=S)Nc1c(C)nn(Cc2c(F)cccc2Cl)c1C,0.81 °C
11,Cc1onc(-c2ccccc2Cl)c1C(=O)Nc1sc2c(c1C(N)=O)CCC2,0.27 °C
12,O=C1CC(NC(=O)Nc2nc(-c3ccccc3)ns2)c2ccccc2N1 (configuration not stated),0.46 °C
13,O=C(CS(=O)(=O)c1ccc2ccccc2c1)Nc1ccc(Cl)c(Cl)c1,0.11 °C
14,CNS(=O)(=O)c1ccc(NC(=O)c2cc(-c3ccccc3)nc3ccccc23)cc1,0.71 °C
15,CCCC(=O)Nc1ccc2nc(NC(=O)CCC)sc2c1,0.34 °C
16,COc1ccc(CCC(=O)Nc2nc3ccc(S(C)(=O)=O)cc3s2)cc1,0.35 °C
17,COc1ccc(-c2cc3ccc(OCc4ccccc4Cl)cc3oc2=O)cc1OC,0.16 °C
18,Cc1ccc(CCC(=O)Nc2ccc(S(=O)(=O)N3CCOCC3)cc2)cc1,inactive: -0.01 °C
19,Clc1ccc(OCCCCOc2cccc3cccnc23)cc1,0.05 °C
20,O=C(/C=C/c1cccs1)Nc1ccc(Br)cc1F,inactive: -0.03 °C
21,COc1ccc(/C=C/C(=O)Nc2cccc(C(C)=O)c2)cc1,active: 1.18 °C
22,O=c1c2c3nc4ccccc4nc3n(CCc3ccccc3)c2ncn1Cc1ccco1,0.16 °C

# Taken from the results shown, two compounds:
row,SMILES,thermal shift dTm
4,Cc1ccc2ccc(C(Nc3ccccn3)c3ccc(Cl)cc3)c(O)c2n1 (configuration not stated),0.57 °C
5,COc1ccc(OC)c(-c2nc(NC(=O)c3ccccc3OC)sc2C)c1,inactive: -7.06 °C

# Further results:

row,SMILES,thermal shift dTm
1,COc1ccc(NC(=O)CSc2nnc(C)c(=O)n2N)cc1Cl,0.27 °C
2,Cc1ccc(SC(C)C(=O)Nc2ccc(C(N)=O)cc2)cc1 (configuration not stated),0.05 °C
3,CCCOc1ccc(-c2cc(C(N)=O)c3ccccc3n2)cc1,inactive: -0.09 °C
4,O=C1CC(c2ccc(Cl)cc2)CC2=C1C=Nc1ccccc1N2 (configuration not stated),0.15 °C
5,Cc1c(Cl)cccc1-c1ccc(C(=O)NCc2ccco2)o1,0.15 °C
6,CCN(CC)S(=O)(=O)c1ccc(-c2csc([N+]3=C(c4ccc(OC)cc4)CC(c4ccc(OC)cc4)=N3)n2)cc1,inactive: -0.04 °C
7,COCCCNC(=O)/C(=C\c1ccc(-c2ccc(Cl)cc2)o1)NC(=O)c1ccc(C)cc1,0.19 °C
8,COc1ccccc1C(=O)NC(=S)Nc1ccc(NC(=O)C(C)C)cc1,0.11 °C
9,Cc1cccc(NC(=O)Nc2ccc(C)c(C)c2)c1,0.98 °C
10,Cc1cc(C)nc(NS(=O)(=O)c2ccc(NC(=O)c3cccs3)cc2)n1,active: 2.92 °C
11,Cc1ccc(NC(=O)Nc2ccccc2F)cc1C,0.43 °C
12,O=C(Cc1ccc(Br)cc1)Nc1cccc(-c2nc3ccccc3s2)c1,0.11 °C
13,COc1ccc(-c2noc(CSc3nc4ccc(C)cc4[nH]3)n2)cc1,0.01 °C
14,c1ccc(Nc2ccc(N3CCCCC3)nn2)cc1,0.65 °C
15,O=C(OCc1nnc(-c2ccccc2)o1)c1cccc2ccccc12,0.02 °C
16,NC1=NC(=O)/C(=C\c2ccc(-c3ccc(C(=O)O)c(Cl)c3)o2)S1,0.89 °C
17,CCCc1cc(=O)[nH]c(N2CCN(Cc3ccc4c(c3)OCO4)CC2)n1,0.02 °C
18,O=C(/C=C/c1ccco1)NCc1cccc(CNC(=O)/C=C/c2ccco2)c1,active: 1.04 °C
19,COc1ccc(NC(=O)CS(=O)(=O)c2ccc3ccccc3c2)cc1,0.21 °C
20,C=CCN(Cc1nc(-c2ccc(Cl)cc2)no1)C(=O)Nc1ccc(C)cc1,0.27 °C
21,Cc1ccc(CN2CCC(C(=O)Nc3cccc(-c4ccn[nH]4)c3)CC2)o1,0.19 °C
22,O=C(Nc1ccc(Cl)c(Cl)c1)NC12CC3CC(CC(C3)C1)C2,0.16 °C

row,SMILES,thermal shift dTm
1,CC(C)C(=O)Nc1ccc(NC(=O)/C=C/c2ccccc2)cc1,0.12 °C
2,CSc1ccc(-c2cc(C(N)=O)on2)cc1,0.14 °C
3,COc1cc(/C=N/O)cc(Br)c1OCc1ccccc1F,0.16 °C
4,Fc1ccc(COc2ccc(CNc3ccccc3)cc2Cl)cc1,0.63 °C
5,O=C(Nc1nc(-c2ccccc2)ns1)N1CCOc2ccc(Cl)cc2C1,0.23 °C
6,FC(F)(F)c1cccc(N2CCN(Cc3ccc(Br)s3)CC2)c1,inactive: -0.13 °C
7,O=C(O)Cn1c2ccc(Br)cc2c2nc3ccccc3nc21,0.44 °C
8,Cc1nn(-c2ccccc2)cc1-c1nc2c(cnn2C2CCCC2)[nH]1,0.52 °C
9,O=C(/C=C/c1ccccc1Cl)NCCc1nc2ccccc2[nH]1,0.84 °C
10,CC(=O)Nc1ccc(NC(=O)c2ccccc2NC(=O)c2ccc(C)cc2)cc1,0.1 °C
11,CC(=O)Nc1ccc(S(=O)(=O)Nc2ccc(OC3CCCC3)cc2)cc1,0.41 °C
12,NC(=O)c1ccc(OCc2cccc(F)c2)cc1,0.19 °C
13,CCCN(CC1CC1)C(=O)c1cc(COc2ccc(OC)cc2Cl)on1,0.09 °C
14,CSC1=N/C(=C\c2ccc(-c3ccc(Cl)cc3)o2)C(=O)S1,0.29 °C
15,Cc1ccc(C(=O)Nc2sc(Cc3ccccc3)cc2C(N)=O)o1,0.37 °C
16,OCc1ccc(OCc2cccc3ccccc23)c(Br)c1,0.11 °C
17,CCOc1cc(/C=C2/N=C(c3ccco3)OC2=O)ccc1OC(=O)c1ccc(OC)cc1,0.8 °C
18,Cc1ccc2nc(-c3ccc4c(c3)OCO4)cc(C(=O)NC3=NCCS3)c2c1,0.16 °C
19,Cc1ccc(NC(=O)COc2ccccc2)c(NC(=O)c2ccc(C)c(C)c2)c1,0.24 °C
